Measurements: patent US20240279275A1 (SHENZHEN WINKEY TECHNOLOGY CO., LTD, priority 2021, published 2024)

Experiment: general procedure: peptide synthesis; Amide Resin, substitution degree 1.4
Conditions: whole synthesis, HPLC, detection wavelength 215 nm, scale of the general procedure 20 g resin

Substance | final purity (method not given) [%]
GA-Gly-Pro-Gln-Gly-Pro-Gln-NH2 | 98.69
CA-Gly-Pro-Gln-Gly-Pro-Gln-NH2 | 99.12
